The target of assay [1] is T1, GFP-tagged mAsxl1 C-terminus (aa 1193-1514) (mouse) (UniProt P59598).
T1 sequence: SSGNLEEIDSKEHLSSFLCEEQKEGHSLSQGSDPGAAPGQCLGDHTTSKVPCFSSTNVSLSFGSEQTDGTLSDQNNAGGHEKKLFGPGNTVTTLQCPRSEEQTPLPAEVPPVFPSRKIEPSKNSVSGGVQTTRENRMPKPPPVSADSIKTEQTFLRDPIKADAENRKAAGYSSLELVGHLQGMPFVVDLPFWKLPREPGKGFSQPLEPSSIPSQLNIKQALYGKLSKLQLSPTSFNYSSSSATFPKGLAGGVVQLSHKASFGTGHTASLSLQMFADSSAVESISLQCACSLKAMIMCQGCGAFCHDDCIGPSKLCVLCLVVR
The experiment in a line: co-IP; domain mapping with GFP-tagged mAsxl1 forms and Flag-tagged hLHX2 forms; HEK293 cell lysates (1-2 mg), anti-Flag or anti-GFP, protein A/G-agarose, Western blot.

Assay [2] has as its target Additional sex combs-like 1 (Asxl1), endogenous (mouse (endogenous in N2a)) (UniProt P59598). In words: co-IP; endogenous proteins in N2a neuroblastoma cell lysate; immunocomplexes on protein A/G-agarose, Western blot. A general note: A western blot detects proteins with antibodies after separation by electrophoresis.

No constants are given. Whether binding was seen depends on the method and setting. In cells and extracts the contact can be indirect. Some results given as binding are weak or reduced against the parent protein; the word gives no strength. For some assays here: Sequences can lack the tags named with a protein.

B1: Flag-tagged hLhx2 LIM domain (aa 1-174) (domain or fragment, UniProt P50458 1-174)
chain: MLFHSLSGPEVHGVIDEMDRRAKSEAPAISSAIDRGDTETTMPSISSDRAALCAGCGGKISDRYYLLAVDKQWHMRCLKCCECKLNLESELTCFSKDGSIYCKEDYYRRFSVQRCARCHLGISASEMVMRARDLVYHLNCFTCTTCNKMLTTGDHFGMKDSLVYCRLHFEALLQ
In the case of B1, the binding result in assay [1] is listed as “binds”.

B2: LIM homeobox 2 (Lhx2), endogenous (protein, UniProt Q9Z0S2 1-406)
chain: MLFHSLSGPEVHGVIDEMDRRAKSEAPAISSAIDRGDTETTMPSISSDRAALCAGCGGKISDRYYLLAVDKQWHMRCLKCCECKLNLESELTCFSKDGSIYCKEDYYRRFSVQRCARCHLGISASEMVMRARDLVYHLNCFTCTTCNKMLTTGDHFGMKDSLVYCRLHFEALLQGEYPAHFNHADVAAAAAAAAAAKSAGLGSAGANPLGLPYYNGVGTVQKGRPRKRKSPGPGADLAAYNAALSCNENDAEHLDRDQPYPSSQKTKRMRTSFKHHQLRTMKSYFAINHNPDAKDLKQLAQKTGLTKRVLQVWFQNARAKFRRNLLRQENTGVDKTSDATLQTGTPSGPASELSNASLSPSSTPTTLTDLTSPTLPTVTSVLTSVPGNLEGHEPHSPSQTTLTNLF
Consider B2, for which the binding result in assay [2] is given as “binds”.

(Values after paper PMC12322997, “Asxl1 regulates optic cup development through interaction with Lhx2 and epigenetic modulation of Wnt signaling” (Animal Cells and Systems, 2025).)
